Laboratory results published in patent publication US20200165344A1.
Results are given in words; binding and its absence hold for the method and conditions named. Some binding calls cover weakened binding; strength is not graded here.

Protein sequences, listed by entry. Tags and fused reporters are not part of them.
UniProt P26718: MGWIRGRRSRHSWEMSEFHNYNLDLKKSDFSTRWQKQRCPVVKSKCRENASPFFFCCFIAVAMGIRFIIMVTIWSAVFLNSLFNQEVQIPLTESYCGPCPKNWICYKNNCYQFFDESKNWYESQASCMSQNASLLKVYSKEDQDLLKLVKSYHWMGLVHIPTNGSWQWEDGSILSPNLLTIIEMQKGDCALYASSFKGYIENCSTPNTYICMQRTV

B1: A49-TriNKET-FLT3-IMCEB10 (bispecific antibody, V domains shown)
VH 1: EVQLVESGGGLVKPGGSLRLSCAASGFTFSSYSMNWVRQAPGKGLEWVSSISSSSSYIYYADSVKGRFTISRDNAKNSLYLQMNSLRAEDTAVYYCARGAPMGAAAGWFDPWGQGTLVTVSS
VL 1: DIQMTQSPSSVSASVGDRVTITCRASQGISSWLAWYQQKPGKAPKLLIYAASSLQSGVPSRFSGSGSGTDFTLTISSLQPEDFATYYCQQGVSFPRTFGGGTKVEIK
VH 2: EVQLVQSGAEVKKPGASVKVSCKASGYTFTSYYMHWVRQAPGQGLEWMGIINPSGGSTSYAQKFQGRVTMTRDTSTSTVYMELSSLRSEDTAVYYCARGVGAHDAFDIWGQGTTVTVSSA
VL 2: DVVMTQSPLSLPVTPGEPASISCRSSQSLLHSNGNNYLDWYLQKPGQSPQLLIYLGSNRASGVPDRFSGSGSDTDFTLQISRVEAEDVGVYYCMQGTHPAISFGQGTRLEIKR
B2: A49-TriNKET-FLT3-4G8 (bispecific antibody, V domains shown)
VH 1: B1 VH 1
VL 1: B1 VL 1
VH 2: QVQLQQPGAELVKPGASLKLSCKSSGYTFTSYWMHWVRQRPGHGLEWIGEIDPSDSYKDYNQKFKDKATLTVDRSSNTAYMHLSSLTSDDSAVYYCARAITTTPFDFWGQGTTLTVSS
VL 2: DIVLTQSPATLSVTPGDSVSLSCRASQSISNNLHWYQQKSHESPRLLIKYASQSISGIPSRFSGSGSGTDFTLSINSVETEDFGVYFCQQSNTWPYTFGGGTKLEIKR

Biological target: human NKG2D expressed on EL4 cells (human) (UniProt P26718)
Test: flow cytometry on EL4 cells expressing human NKG2D

Row | Binder | binding
1 | B1 | binds
2 | B2 | binds
